The values that follow are results of earlier work, collected in patent publication US8007825B2, “Oral compositions containing a salivation inducing agent” (McNeil-PPC, Inc., priority 2005, dated 2011).

Peptide text beside a SMILES is read from it.

For the data set the following is noted: relative to sucrose (standard = 1).
For `OC[C@@H](O)[C@@H](O)[C@H](O)[C@@H](O)CO` [Sorbitol], the sweetness index is recorded as 0.54-0.7.
`OC[C@H]1O[C@@](CO)(O[C@H]2O[C@H](CO)[C@@H](O)[C@H](O)[C@H]2O)[C@@H](O)[C@@H]1O` [Sucrose]: the sweetness index is listed as 1.
With `OC[C@@H](O)[C@@H](O)[C@H](O)[C@H](O)CO` [Mannitol], the sweetness index is 0.7.
On to `CC1=CC(=O)[N-]S(=O)(=O)O1.[K+]` [Acesulfame K], for which the sweetness index is 200.
As for `OC[C@@H](O)[C@H](O)[C@@H](O)CO` [Xylitol], the sweetness index is reported as 1.0.
Turning to `OC[C@H]1O[C@H](O[C@]2(CCl)O[C@H](CCl)[C@@H](O)[C@@H]2O)[C@H](O)[C@@H](O)[C@H]1Cl` [Sucralose], the sweetness index is reported as 600.
`COC(=O)[C@H](Cc1ccccc1)NC(=O)[C@@H](N)CC(=O)O` [Aspartame] (H-Asp-Phe-OMe): the sweetness index was 180.
On to `O=C1NS(=O)(=O)c2ccccc21` [Saccharin], for which the sweetness index is reported as 300.
Consider `O=C(CO)[C@@H](O)[C@H](O)[C@H](O)CO` [Fructose], for which the sweetness index is given as 1.2-1.7.
